The text below walks through data of PMC6320370.

By UniProt entry, the sequences of proteins in these tests, tags left out.
UniProt Q9CXC9: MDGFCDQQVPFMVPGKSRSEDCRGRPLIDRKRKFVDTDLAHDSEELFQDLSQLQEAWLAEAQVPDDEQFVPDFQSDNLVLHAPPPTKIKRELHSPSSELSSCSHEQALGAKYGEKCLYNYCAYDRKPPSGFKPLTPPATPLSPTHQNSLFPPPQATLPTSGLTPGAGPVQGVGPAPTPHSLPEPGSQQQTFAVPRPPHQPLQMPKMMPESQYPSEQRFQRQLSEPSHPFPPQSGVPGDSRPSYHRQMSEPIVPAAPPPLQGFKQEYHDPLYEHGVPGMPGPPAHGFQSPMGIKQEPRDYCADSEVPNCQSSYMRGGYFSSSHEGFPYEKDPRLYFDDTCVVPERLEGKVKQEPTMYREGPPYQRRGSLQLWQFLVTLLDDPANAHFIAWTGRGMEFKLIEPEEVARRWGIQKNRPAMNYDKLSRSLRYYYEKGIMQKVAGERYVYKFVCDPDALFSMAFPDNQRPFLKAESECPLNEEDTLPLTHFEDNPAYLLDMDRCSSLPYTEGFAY

These are yes or no findings as the source states them, for the method shown. Some results given as binding are weak or reduced against the parent protein; the word gives no strength.

In the assay the target is Etv5 (mouse (endogenous in murine leukemic B-cell progenitors)) (UniProt Q9CXC9). Kind of assay: western blot of whole cell lysate; western blot of Etv5 in WT, aPKCζ-/-, aPKCλΔ/Δ and DKO B-cell progenitors with or without BCR-ABL expression; RIPA lysates, SDS-PAGE. In general terms: Immunoblotting shows a protein as a band on a membrane.

As to Etv5 (from UniProt Q9CXC9 1-510), the binding entry is “binds”.
